This note sets out measurements from doi:10.1101/2022.07.11.499601.

The chains behind the UniProt entries cited, without tags or fusion partners.
UniProt P49682: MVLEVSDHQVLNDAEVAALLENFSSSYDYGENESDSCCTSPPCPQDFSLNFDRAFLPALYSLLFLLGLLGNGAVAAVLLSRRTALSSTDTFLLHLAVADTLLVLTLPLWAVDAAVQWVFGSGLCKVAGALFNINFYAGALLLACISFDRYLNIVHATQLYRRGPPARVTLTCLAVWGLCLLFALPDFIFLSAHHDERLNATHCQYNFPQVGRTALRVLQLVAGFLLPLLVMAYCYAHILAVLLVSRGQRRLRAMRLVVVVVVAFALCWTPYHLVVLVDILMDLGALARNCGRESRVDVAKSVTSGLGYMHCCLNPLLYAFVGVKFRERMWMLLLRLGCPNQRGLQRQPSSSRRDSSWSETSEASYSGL
UniProt P35626: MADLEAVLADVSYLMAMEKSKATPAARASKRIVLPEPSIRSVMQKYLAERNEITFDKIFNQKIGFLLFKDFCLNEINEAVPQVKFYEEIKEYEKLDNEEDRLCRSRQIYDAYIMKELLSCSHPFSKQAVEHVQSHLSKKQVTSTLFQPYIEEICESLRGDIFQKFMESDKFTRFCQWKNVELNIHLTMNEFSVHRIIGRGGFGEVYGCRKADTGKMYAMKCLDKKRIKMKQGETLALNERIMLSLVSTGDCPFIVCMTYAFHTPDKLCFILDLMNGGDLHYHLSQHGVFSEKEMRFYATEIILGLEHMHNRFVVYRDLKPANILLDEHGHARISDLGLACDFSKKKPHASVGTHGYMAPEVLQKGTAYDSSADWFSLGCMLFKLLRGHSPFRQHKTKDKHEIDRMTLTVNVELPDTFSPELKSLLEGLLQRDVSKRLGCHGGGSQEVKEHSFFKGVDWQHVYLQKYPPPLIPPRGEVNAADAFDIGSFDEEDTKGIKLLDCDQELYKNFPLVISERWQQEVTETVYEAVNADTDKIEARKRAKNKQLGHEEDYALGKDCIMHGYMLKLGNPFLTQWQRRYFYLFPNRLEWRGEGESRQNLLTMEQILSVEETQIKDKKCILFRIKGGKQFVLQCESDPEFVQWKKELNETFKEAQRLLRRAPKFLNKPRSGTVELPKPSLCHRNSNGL
UniProt P25098: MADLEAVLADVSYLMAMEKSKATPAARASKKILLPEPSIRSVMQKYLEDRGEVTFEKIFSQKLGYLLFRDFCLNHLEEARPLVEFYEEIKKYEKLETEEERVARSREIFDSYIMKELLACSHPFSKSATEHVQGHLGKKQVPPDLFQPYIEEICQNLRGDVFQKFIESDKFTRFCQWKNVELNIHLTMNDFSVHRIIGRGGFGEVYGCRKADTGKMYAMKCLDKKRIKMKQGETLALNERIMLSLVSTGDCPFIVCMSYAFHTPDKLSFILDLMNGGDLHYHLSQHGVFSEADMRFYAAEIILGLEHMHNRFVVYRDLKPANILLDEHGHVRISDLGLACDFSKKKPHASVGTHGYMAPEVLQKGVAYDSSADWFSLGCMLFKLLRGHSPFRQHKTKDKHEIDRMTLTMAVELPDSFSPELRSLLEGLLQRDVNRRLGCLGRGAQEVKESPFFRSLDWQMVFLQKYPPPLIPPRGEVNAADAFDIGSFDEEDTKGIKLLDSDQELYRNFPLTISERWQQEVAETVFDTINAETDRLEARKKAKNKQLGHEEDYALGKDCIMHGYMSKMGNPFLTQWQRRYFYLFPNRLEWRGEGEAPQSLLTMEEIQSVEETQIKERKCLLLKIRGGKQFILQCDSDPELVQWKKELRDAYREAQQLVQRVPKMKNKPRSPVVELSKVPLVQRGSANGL

Results are given in words; binding and its absence hold for the method and conditions named. Binding seen in cells or lysates may run through a third protein. Some entries that bind do so weakly or less than the wild type.

This assay has as its target CXCR3-SmBiT (UniProt P49682). Briefly: split reporter.

Consider “GRK3-LgBiT (from UniProt P35626 1-688) (enzyme)”, for which the binding entry is listed as “binds”.

“GRK2-LgBiT (from UniProt P25098 1-689) (enzyme)”: the binding result is recorded as “binds”.
